Screen size: about 320,000 compounds; about 740 (0.23%) were called active. This list was built around the results that the source calls inconclusive (neither active nor inactive); the mix of calls is not that of the screen. Calls come from the whole dose curve; as a rule, active = well fitted activation curve with a large enough effect; inconclusive = small, poorly fitted or top-dose-only effect; inactive = no such curve, though single readings can be large or run the other way. A potency beside an inconclusive call is a rough fit, not a confirmed value.
test: qHTS Assay for Small Molecule Inhibitors of Mitochondrial Division or Activators of Mitochondrial Fusion; note: nearly all actives have a fitted effect of over 45% in size; for growth rescue (activation): % of control where 0% means no effect; conditions: S. cerevisiae fusion-defective mutant growth rescue, CellTiterGlo 48 h; growth rescue (activation): at 46.1 µM (top of the series) unless noted
Procedure, shortened: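 S. cerevisiae fusion-defective temperature-sensitive mutants (e.g. fzo1-1, mgm1-5) grown 48 h at 37C in YPEG (ethanol/glycerol non-fermentable) medium with 23 nl compound per well; growth rescue read as CellTiterGlo luminescence.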
Potency is the fitted concentration of half-maximal effect.

For CC(C)CCNC(=O)C(c1ccc(O)cc1)N(Cc1cccs1)C(=O)C1COc2ccccc2O1 (centres undefined), which “growth rescue (activation)” value is on record?
Its value is inactive: 4.66%.

For CN1C(=O)CC(N2CCN(CC(=O)N3CCCC3)CC2)C1=O (centres undefined), which “growth rescue (activation)” value is on record?
Its value is inactive: -3.49%.

With COc1ccc(S(=O)(=O)/N=C2\C=C(Nc3ccc(O)cc3)C(=O)c3ccccc32)cc1 as the compound, how does the “growth rescue (activation)” value read?
The value was inactive: -37.5%.

For COc1cc(-n2c(=O)c3ccccc3n(Cc3cccc(C)c3)c2=O)cc(OC)c1OC, which “growth rescue (activation)” value is on record?
Its value is inactive: -4.72%.

For CCn1c(=N)n(CC(=O)C23CC4CC(CC(C4)C2)C3)c2ccccc21, which Potency is on record?
Its Potency is inconclusive: 15.8 µM [activator, single point].

Which Potency does the source give for O=C(NCCCN1CCOCC1)c1cc(-c2ccc(F)cc2)no1 here?
The Potency was inconclusive: 5.01 µM [activator, partial curve].

For CC(=O)Nc1ccc(S(=O)(=O)Oc2ccc3c(c2)C(C)=CC(C)(C)N3)cc1, which Potency is on record?
The Potency was inconclusive: 15.8 µM [activator, single point].

Which “growth rescue (activation)” value does the source give for Cc1cccc(C(=O)NC2=NCCS2)c1 here?
The value was inactive: 14.2%.

Which Potency does the source give for CCN(CC)S(=O)(=O)c1cccc(NC(=O)c2ccc(SC)cc2OC)c1 here?
The Potency was inconclusive: 35.5 µM [activator, single point].

Which “growth rescue (activation)” value does the source give for Cc1ccc(C=Nc2ccccc2C(N)=O)cc1 here?
Its value is inactive: -0.488%.

Which “growth rescue (activation)” value does the source give for CNC(=S)N(CCO)Cc1cc2cc3c(cc2[nH]c1=O)OCCO3 here?
Its value is inactive: 6.49%.

With CCC(c1nnnn1CCc1ccccc1)N(Cc1ccco1)Cc1cc2cccc(C)c2[nH]c1=O (centres undefined) as the compound, how does the Potency read?
Its Potency is inconclusive: 22.4 µM [activator, single point].

For O=C(Cc1ccc(Br)cc1)NCCc1ccc(Cl)cc1Cl, which Potency is on record?
Its Potency is inconclusive: 15.8 µM [activator, single point].

Which “growth rescue (activation)” value does the source give for CCC(=O)N(c1ccc(C(=O)O)cc1)c1nc(-c2ccc(OC)cc2)c(C)s1 here?
Its value is inactive: 4.89%.

Which Potency does the source give for Cn1c(N2CCN(S(=O)(=O)c3ccc(F)cc3)CC2)nc2ccccc21 here?
The Potency was active: 11.2 µM.

Which Potency does the source give for O=[N+]([O-])c1ccc2[nH]c3c(c2c1)CCCC3 here?
The Potency was inconclusive: 14.1 µM [activator, partial curve].

Which “growth rescue (activation)” value does the source give for Cc1nc(NC(=O)c2ccccc2)sc1-c1csc(Nc2ccc(Cl)cc2Cl)n1 here?
The value was inactive: -1.66%.

Which “growth rescue (activation)” value does the source give for O=C1C(=O)c2ccccc2C(O)=C1c1ccccc1F here?
Its value is inactive: 2.93%.

Which Potency does the source give for COc1ccc([C@H]2CC(=O)C=C(c3cccc(Cl)c3O)C2)cc1OC here?
The Potency was inconclusive: 22.4 µM [activator, single point].

With CCN(CC)c1ccc(/C=N/NC(=S)NCc2ccc(OC)cc2)cc1 as the compound, how does the “growth rescue (activation)” value read?
Its value is inactive: 25.1%.

Which Potency does the source give for Cc1cccn2c3c(c(=O)nc12)C(c1ccc(F)cc1)CC(=O)N3 (centres undefined) here?
Its Potency is inconclusive: 6.31 µM [activator, single point].

For CCCNc1nc(Cl)nc(NC(C)(C)C)n1, which Potency is on record?
The Potency was inconclusive: 17.8 µM [activator, partial curve].

Which “growth rescue (activation)” value does the source give for Cc1ccc(C(=O)N2CCN(c3cccc(Cl)c3)CC2)cc1C here?
Its value is inactive: 19.5%.

With O=C(CN1CCN(c2ccccn2)CC1)Nc1cccc(Cl)c1Cl as the compound, how does the Potency read?
Its Potency is inconclusive: 12.6 µM [activator, partial curve].

Which “growth rescue (activation)” value does the source give for COc1ccc(N2CCN(C(=O)COCc3cc(-c4ccc5c(c4)OCO5)on3)CC2)cc1 here?
Its value is inactive: 6.71%.

For O=[N+]([O-])c1cc(S(=O)(=O)N2CCCC2)ccc1OCc1ccccc1, which Potency is on record?
The Potency was inconclusive: 11.2 µM [activator, partial curve, poor fit].

With O=C(COc1ccc(Br)cc1)N1CCN(c2ccc([N+](=O)[O-])c(N3CCCCC3)c2)CC1 as the compound, how does the “growth rescue (activation)” value read?
The value was inactive: 29.6%.

With COc1ccc(CCNC(=O)Cn2c(=O)n(-c3cc(F)ccc3F)c(=O)c3sccc32)cc1OC as the compound, how does the “growth rescue (activation)” value read?
The value was inactive: -4.72%.

For CC1CC1C(=O)Nc1ccc(-c2ccccc2)cc1 (centres undefined), which Potency is on record?
The Potency was inconclusive: 15.8 µM [activator, partial curve].

With CCc1c(C)[nH]c2c1C(=O)C(CN1CCOCC1)CC2 (centres undefined) as the compound, how does the Potency read?
The Potency was inconclusive: 16.4 µM [activator, single point].

For CCCc1nc2ccccc2c(C(=O)OC(C)C(=O)NCc2ccc3c(c2)OCO3)c1CC (centres undefined), which Potency is on record?
Its Potency is inconclusive: 20 µM [activator, single point].

With COc1ccc(N2CCN(C(c3nnnn3C3CCCC3)C(C)C)CC2)cc1 (centres undefined) as the compound, how does the Potency read?
Its Potency is active: 12.6 µM.

With O=C(Nc1ccc(Nc2ccccc2)cc1)C(Cl)Cl as the compound, how does the Potency read?
The Potency was inconclusive: 31.6 µM [activator, single point].

With COc1ccccc1CN(C)C(=O)c1cccc(S(=O)(=O)N2CCc3ccccc3C2)c1 as the compound, how does the Potency read?
Its Potency is inconclusive: 25.1 µM [activator, single point].

Which “growth rescue (activation)” value does the source give for COc1ccc2c(c1)[nH]c1c(=O)n(CCCN3CCOCC3)cnc12 here?
Its value is inactive: -0.698%.

For COc1ccccc1N(C)S(=O)(=O)c1ccc(Cl)c(C(=O)N2CCC(C(N)=O)CC2)c1, which Potency is on record?
Its Potency is inconclusive: 35.5 µM [activator, single point].

Which “growth rescue (activation)” value does the source give for Cc1nc(NC(=O)CCl)sc1C(=O)N(C)C here?
The value was inactive: -5.14%.

For CN(C(=O)COC(=O)c1cc2c(s1)CCCCC2)C1CCS(=O)(=O)C1 (centres undefined), which “growth rescue (activation)” value is on record?
The value was inactive: -1.27%.

Which Potency does the source give for CSc1ccc(C#N)cc1NC(=O)c1ccccc1 here?
Its Potency is inconclusive: 25.1 µM [activator, single point].

Which “growth rescue (activation)” value does the source give for C/C(CC(=O)NC12CC3CC(CC(C3)C1)C2)=N\NC(=O)c1ccc(F)cc1 here?
Its value is inactive: -3.75%.

Which “growth rescue (activation)” value does the source give for O=C1Cc2ccccc2C(=O)N1OCc1ccc(Cl)cc1 here?
The value was inactive: 0.806%.

With O=C(COC(=O)c1cc([N+](=O)[O-])ccc1N1CCOCC1)c1ccccc1 as the compound, how does the “growth rescue (activation)” value read?
The value was inactive: 3.39%.

With Cc1cccn2c(=O)c(/C=C(\C#N)C(=O)NCc3ccco3)c(N3CCCCC3)nc12 as the compound, how does the Potency read?
The Potency was inconclusive: 15.8 µM [activator, partial curve].

With Cc1ccc(-n2[nH]c(C)c(/C=N/Nc3ccc([N+](=O)[O-])cc3[N+](=O)[O-])c2=O)cc1C as the compound, how does the “growth rescue (activation)” value read?
Its value is inactive: -4.09%.

Which “growth rescue (activation)” value does the source give for CCOc1ccc(NC(=O)c2sc3nc(N4CCOCC4)c4c(c3c2N)CCCC4)cc1 here?
The value was inactive: 1.47%.

Which Potency does the source give for Cc1ccc(OC(C)C(=O)Nc2ccc(C)c(S(=O)(=O)Nc3ccc(C)cc3C)c2)cc1 (centres undefined) here?
Its Potency is inconclusive: 31.6 µM [activator, single point].

For S=c1[nH]nc(-c2ccccc2Cl)n1Cc1ccccc1, which “growth rescue (activation)” value is on record?
The value was inactive: 6.03%.

For CN(C)CCCNc1cc(-c2ccccc2)nc2cc(-c3cccc(F)c3)nn12, which “growth rescue (activation)” value is on record?
Its value is inactive: -18.2%.

Which “growth rescue (activation)” value does the source give for CCOC(=O)c1[nH]c(C)c(C(=O)N2CCc3c([nH]c4ccccc34)C2c2ccccn2)c1C (centres undefined) here?
The value was inactive: 9.28%.

Which Potency does the source give for COc1ccccc1NS(=O)(=O)c1ccc(N/N=C/C=C/c2ccccc2[N+](=O)[O-])c([N+](=O)[O-])c1 here?
Its Potency is inconclusive: 15.8 µM [activator, single point].

With CCOC(=O)c1ccc(C(=O)OCC)c(NC(=S)Nc2ccc([N+](=O)[O-])cc2OC)c1 as the compound, how does the Potency read?
The Potency was inconclusive: 22.4 µM [activator, single point].

Which Potency does the source give for Clc1cccc(NCc2nnc(SCc3ccccc3)o2)c1 here?
The Potency was inconclusive: 11.2 µM [activator, partial curve].

Which “growth rescue (activation)” value does the source give for Cc1n[nH]c(=S)n1/N=C/c1ccc(-c2ccccc2[N+](=O)[O-])o1 here?
Its value is inactive: -1.45%.

With Cc1[nH]c2ccccc2c1/C=C/c1nc2ccccc2c(=O)n1CCO as the compound, how does the Potency read?
Its Potency is inconclusive: 1.41 µM [activator, full curve, poor fit].

Which “growth rescue (activation)” value does the source give for C(=N\Nc1nc(N2CCCC2)nc(N2CCCC2)n1)/c1ccccc1OCc1ccccc1 here?
Its value is inactive: -3.67%.

With CC(C)(C)C(O)C(Cc1ccccc1Cl)n1cncn1 (centres undefined) as the compound, how does the Potency read?
The Potency was active: 10 µM.

With CCCCOC(=O)c1ccc(NC(=O)COC(=O)C2CSC3(C)CCC(=O)N23)cc1 (centres undefined) as the compound, how does the “growth rescue (activation)” value read?
Its value is inactive: 4.22%.

With CC(Oc1ccc(Cl)cc1Cl)c1nc(-c2ccc(NC(=O)c3ccncc3)cc2)no1 (centres undefined) as the compound, how does the Potency read?
The Potency was inconclusive: 2.51 µM [activator, full curve].

With O=C(CCNC(=O)c1ccccc1Cl)Nc1nc(-c2ccc3ccccc3c2)cs1 as the compound, how does the Potency read?
The Potency was inconclusive: 35.5 µM [activator, single point].

For Nc1nc(-c2ccco2)nn1C(=O)c1ccccc1, which “growth rescue (activation)” value is on record?
The value was inactive: -0.156%.

For CCCC(=O)NC(=S)N1CCN(c2ccc([N+](=O)[O-])cc2)CC1, which “growth rescue (activation)” value is on record?
Its value is inactive: -5.43%.

With COc1ccc(NC(=O)CN2C(=O)COc3ccc(S(=O)(=O)N4CCOCC4)cc32)cc1Cl as the compound, how does the “growth rescue (activation)” value read?
The value was inactive: -7.62%.

Which Potency does the source give for O=C(Nc1cccc(Cl)c1)c1ccc(Cn2cc(Cl)cn2)cc1 here?
Its Potency is inconclusive: 12.6 µM [activator, partial curve].

For N#Cc1nc(Cc2cccc3ccccc23)oc1NCc1ccco1, which Potency is on record?
The Potency was inconclusive: 12.6 µM [activator, partial curve].

For Cc1ccc(C(C(=O)Nc2ccc3c(c2)OCO3)N(C)C(=O)/C=C\c2ccc3c(c2)OCO3)cc1 (centres undefined), which Potency is on record?
Its Potency is inconclusive: 35.5 µM [activator, single point].

Which Potency does the source give for CSc1ccc(C(=O)C2CCCN(C(=O)c3ccc4c(c3)OCO4)C2)cc1 (centres undefined) here?
Its Potency is inconclusive: 25.1 µM [activator, single point].

Which Potency does the source give for CC1(C#N)c2ccccc2C(Br)=CN1C(=O)c1ccccc1 (centres undefined) here?
Its Potency is inconclusive: 15.8 µM [activator, single point].

For CCOC(=O)N1CCN(C(=O)c2ccc3c(c2)NC(=O)/C(=C\c2cccc(C)c2)S3)CC1, which “growth rescue (activation)” value is on record?
The value was inactive: 9.47%.

Which Potency does the source give for CCOC(=O)c1c(NC(=O)C(C)Sc2c[nH]c3ccccc23)sc2c1CCC2 (centres undefined) here?
Its Potency is inconclusive: 17.8 µM [activator, single point].

For Cc1cc(C)n2c(Br)c(CSc3nc4ccccc4s3)nc2n1, which Potency is on record?
Its Potency is inconclusive: 14.1 µM [activator, partial curve].

Which Potency does the source give for Cc1ccccc1CSc1[nH]c(=O)ncc1C here?
Its Potency is inconclusive: 35.5 µM [activator, partial curve, poor fit].

For COc1cc(/C=C(/C#N)c2ccccc2)ccc1Oc1ccc([N+](=O)[O-])cn1, which Potency is on record?
Its Potency is inconclusive: 35.5 µM [activator, partial curve].

With Cc1nn(CC(=O)Nc2cccc(C(F)(F)F)c2)c(=O)c2cccn12 as the compound, how does the “growth rescue (activation)” value read?
Its value is inactive: 2.92%.

Which Potency does the source give for COc1ccc(C)cc1NC(=O)c1nn(-c2ccccc2)cc1OC here?
Its Potency is inconclusive: 12.6 µM [activator, partial curve].

Reference: PubChem BioAssay AID485298 (National Center for Advancing Translational Sciences (NCATS), 2010)
